The list shows a part of the results.
Compound: CC1Cc2ccccc2N1C(=O)C1CCCN(C1)C(=O)CCl (mixture of isomers) [TRIM25 ligand 11 (diastereomer mixture)]
Assay: probe-labelled cysteine peptide fold change vs DMSO (competition) (log2 fold change); higher = less target engagement (more negative = stronger competition)
Conditions: THP-1, incubation time: 4 h
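Note: competitive chemoproteomic profiling in live THP-1 cells with an iodoacetamide desthiobiotin (IA-DTB) probe, comparing probe-labelled peptide intensities in compound-treated cells against DMSO-treated controls.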

The chains behind the UniProt entries cited, without tags or fusion partners. Where a name states a change or a piece, a line headed by the entry shows the natural chain unless it says otherwise.
UniProt Q6P1N9: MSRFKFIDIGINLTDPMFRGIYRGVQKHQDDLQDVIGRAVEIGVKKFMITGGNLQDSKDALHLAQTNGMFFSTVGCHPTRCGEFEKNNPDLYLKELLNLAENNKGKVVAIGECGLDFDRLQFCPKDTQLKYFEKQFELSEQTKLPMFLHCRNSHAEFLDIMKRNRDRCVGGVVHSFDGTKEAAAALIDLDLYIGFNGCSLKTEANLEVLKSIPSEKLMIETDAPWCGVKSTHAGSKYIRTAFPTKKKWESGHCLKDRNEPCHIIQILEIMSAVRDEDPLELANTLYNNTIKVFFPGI
UniProt Q8TEA7: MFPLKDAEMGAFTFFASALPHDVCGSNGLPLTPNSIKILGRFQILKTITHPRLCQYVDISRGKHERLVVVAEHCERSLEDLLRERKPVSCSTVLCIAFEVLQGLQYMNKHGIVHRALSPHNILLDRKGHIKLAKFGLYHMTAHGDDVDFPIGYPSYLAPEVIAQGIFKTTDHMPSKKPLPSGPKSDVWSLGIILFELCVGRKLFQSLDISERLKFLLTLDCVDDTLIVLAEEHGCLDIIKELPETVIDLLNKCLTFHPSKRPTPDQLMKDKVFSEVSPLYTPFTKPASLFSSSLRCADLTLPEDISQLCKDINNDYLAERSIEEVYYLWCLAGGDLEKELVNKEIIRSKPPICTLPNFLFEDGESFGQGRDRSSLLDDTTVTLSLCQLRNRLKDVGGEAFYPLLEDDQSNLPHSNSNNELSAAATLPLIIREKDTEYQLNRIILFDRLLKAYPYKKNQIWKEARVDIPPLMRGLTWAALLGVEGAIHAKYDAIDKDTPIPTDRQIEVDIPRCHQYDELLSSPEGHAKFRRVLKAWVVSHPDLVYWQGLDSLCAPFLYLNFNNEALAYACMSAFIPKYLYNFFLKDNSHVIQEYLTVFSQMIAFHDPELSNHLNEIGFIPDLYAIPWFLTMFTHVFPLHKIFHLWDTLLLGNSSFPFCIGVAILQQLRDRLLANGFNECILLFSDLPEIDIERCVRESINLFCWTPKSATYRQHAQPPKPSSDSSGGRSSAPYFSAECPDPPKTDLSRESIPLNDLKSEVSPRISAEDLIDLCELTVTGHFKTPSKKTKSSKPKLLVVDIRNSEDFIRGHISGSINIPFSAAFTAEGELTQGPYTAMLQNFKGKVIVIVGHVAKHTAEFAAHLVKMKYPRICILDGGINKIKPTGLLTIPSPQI
UniProt O75410: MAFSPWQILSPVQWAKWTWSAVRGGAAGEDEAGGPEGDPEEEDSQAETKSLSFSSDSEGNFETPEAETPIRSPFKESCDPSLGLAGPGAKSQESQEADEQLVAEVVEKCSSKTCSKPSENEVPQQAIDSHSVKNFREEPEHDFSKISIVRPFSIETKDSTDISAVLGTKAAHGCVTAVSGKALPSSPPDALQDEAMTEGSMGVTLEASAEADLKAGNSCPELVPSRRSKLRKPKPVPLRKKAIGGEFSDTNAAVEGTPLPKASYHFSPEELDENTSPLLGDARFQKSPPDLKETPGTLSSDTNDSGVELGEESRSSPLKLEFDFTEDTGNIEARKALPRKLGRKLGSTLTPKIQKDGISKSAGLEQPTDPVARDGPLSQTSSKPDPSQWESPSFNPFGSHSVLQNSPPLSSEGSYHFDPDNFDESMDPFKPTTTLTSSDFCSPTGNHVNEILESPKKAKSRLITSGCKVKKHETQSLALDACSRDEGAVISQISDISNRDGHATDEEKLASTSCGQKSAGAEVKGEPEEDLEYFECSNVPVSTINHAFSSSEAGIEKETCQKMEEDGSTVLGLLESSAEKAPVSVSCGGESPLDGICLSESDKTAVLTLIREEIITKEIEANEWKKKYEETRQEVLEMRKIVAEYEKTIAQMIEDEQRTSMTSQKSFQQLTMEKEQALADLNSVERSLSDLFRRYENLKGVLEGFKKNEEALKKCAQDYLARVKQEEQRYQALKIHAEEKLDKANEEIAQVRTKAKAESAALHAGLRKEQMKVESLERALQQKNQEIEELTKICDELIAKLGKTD
UniProt Q15560: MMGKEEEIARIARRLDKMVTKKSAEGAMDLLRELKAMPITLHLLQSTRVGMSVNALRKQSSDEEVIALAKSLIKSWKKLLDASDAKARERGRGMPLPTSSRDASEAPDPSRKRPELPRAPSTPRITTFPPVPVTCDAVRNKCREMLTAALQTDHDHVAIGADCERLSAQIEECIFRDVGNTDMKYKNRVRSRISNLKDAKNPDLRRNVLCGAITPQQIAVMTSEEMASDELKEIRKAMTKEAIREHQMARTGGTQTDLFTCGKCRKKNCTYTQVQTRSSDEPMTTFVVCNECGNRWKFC
UniProt Q6P1X5, whole entry, looked up: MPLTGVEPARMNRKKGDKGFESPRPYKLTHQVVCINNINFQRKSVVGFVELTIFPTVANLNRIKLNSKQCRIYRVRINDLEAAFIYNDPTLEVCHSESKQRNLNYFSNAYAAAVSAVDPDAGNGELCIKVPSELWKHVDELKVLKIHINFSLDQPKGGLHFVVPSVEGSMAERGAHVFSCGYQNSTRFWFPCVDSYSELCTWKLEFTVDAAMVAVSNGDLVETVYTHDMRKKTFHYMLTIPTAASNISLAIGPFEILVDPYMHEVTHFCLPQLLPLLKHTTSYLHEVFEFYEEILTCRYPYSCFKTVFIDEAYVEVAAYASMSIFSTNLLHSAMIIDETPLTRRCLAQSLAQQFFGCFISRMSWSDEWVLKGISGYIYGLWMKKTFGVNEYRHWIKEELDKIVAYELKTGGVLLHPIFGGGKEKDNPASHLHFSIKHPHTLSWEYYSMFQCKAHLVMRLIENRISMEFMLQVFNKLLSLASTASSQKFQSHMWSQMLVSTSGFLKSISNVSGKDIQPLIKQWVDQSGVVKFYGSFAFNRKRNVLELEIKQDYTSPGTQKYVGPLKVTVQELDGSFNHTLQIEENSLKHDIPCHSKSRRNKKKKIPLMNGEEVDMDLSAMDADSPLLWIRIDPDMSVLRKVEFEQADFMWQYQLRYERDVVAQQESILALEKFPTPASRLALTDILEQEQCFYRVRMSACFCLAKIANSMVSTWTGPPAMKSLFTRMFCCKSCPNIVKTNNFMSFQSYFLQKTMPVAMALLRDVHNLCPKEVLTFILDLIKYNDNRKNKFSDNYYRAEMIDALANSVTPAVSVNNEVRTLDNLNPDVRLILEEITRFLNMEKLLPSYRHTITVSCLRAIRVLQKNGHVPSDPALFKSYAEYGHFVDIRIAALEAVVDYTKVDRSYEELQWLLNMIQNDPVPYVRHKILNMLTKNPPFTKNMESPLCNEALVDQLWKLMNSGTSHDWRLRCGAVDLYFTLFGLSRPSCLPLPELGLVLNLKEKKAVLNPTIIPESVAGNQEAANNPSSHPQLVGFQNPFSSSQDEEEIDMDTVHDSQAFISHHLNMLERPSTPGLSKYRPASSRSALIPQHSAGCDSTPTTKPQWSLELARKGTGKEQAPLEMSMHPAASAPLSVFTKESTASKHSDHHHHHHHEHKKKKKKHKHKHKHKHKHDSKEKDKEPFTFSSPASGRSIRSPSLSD
UniProt Q99426: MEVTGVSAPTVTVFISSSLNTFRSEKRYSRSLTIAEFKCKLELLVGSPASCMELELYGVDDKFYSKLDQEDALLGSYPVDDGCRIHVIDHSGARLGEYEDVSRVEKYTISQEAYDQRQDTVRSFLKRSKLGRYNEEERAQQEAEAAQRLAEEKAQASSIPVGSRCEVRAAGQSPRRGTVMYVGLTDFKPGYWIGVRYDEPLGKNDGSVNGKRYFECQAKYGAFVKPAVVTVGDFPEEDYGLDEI
UniProt Q12788: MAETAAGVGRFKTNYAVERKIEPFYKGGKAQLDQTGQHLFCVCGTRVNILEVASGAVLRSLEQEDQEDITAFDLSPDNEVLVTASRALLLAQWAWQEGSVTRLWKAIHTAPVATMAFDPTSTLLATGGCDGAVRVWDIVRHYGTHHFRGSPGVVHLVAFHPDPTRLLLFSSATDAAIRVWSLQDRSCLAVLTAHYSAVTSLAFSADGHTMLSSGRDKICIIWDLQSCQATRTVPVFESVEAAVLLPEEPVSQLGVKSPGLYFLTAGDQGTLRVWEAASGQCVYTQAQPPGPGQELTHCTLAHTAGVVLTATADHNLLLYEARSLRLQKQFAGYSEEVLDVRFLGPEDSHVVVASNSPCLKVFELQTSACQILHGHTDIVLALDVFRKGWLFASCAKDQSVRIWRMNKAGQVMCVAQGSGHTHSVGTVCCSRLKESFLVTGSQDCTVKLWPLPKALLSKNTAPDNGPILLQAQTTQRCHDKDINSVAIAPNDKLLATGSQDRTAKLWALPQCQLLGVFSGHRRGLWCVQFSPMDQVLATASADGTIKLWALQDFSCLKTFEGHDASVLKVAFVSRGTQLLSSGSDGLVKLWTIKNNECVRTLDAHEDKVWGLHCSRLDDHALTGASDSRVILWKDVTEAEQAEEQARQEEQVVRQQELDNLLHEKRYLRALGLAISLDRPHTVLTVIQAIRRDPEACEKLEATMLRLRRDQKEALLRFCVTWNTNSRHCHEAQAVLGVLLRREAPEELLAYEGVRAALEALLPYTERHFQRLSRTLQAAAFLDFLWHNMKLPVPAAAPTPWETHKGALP
UniProt O75347: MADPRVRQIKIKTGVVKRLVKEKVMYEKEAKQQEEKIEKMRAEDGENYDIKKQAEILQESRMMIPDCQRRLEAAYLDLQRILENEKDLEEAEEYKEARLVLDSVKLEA
UniProt Q9C0D5: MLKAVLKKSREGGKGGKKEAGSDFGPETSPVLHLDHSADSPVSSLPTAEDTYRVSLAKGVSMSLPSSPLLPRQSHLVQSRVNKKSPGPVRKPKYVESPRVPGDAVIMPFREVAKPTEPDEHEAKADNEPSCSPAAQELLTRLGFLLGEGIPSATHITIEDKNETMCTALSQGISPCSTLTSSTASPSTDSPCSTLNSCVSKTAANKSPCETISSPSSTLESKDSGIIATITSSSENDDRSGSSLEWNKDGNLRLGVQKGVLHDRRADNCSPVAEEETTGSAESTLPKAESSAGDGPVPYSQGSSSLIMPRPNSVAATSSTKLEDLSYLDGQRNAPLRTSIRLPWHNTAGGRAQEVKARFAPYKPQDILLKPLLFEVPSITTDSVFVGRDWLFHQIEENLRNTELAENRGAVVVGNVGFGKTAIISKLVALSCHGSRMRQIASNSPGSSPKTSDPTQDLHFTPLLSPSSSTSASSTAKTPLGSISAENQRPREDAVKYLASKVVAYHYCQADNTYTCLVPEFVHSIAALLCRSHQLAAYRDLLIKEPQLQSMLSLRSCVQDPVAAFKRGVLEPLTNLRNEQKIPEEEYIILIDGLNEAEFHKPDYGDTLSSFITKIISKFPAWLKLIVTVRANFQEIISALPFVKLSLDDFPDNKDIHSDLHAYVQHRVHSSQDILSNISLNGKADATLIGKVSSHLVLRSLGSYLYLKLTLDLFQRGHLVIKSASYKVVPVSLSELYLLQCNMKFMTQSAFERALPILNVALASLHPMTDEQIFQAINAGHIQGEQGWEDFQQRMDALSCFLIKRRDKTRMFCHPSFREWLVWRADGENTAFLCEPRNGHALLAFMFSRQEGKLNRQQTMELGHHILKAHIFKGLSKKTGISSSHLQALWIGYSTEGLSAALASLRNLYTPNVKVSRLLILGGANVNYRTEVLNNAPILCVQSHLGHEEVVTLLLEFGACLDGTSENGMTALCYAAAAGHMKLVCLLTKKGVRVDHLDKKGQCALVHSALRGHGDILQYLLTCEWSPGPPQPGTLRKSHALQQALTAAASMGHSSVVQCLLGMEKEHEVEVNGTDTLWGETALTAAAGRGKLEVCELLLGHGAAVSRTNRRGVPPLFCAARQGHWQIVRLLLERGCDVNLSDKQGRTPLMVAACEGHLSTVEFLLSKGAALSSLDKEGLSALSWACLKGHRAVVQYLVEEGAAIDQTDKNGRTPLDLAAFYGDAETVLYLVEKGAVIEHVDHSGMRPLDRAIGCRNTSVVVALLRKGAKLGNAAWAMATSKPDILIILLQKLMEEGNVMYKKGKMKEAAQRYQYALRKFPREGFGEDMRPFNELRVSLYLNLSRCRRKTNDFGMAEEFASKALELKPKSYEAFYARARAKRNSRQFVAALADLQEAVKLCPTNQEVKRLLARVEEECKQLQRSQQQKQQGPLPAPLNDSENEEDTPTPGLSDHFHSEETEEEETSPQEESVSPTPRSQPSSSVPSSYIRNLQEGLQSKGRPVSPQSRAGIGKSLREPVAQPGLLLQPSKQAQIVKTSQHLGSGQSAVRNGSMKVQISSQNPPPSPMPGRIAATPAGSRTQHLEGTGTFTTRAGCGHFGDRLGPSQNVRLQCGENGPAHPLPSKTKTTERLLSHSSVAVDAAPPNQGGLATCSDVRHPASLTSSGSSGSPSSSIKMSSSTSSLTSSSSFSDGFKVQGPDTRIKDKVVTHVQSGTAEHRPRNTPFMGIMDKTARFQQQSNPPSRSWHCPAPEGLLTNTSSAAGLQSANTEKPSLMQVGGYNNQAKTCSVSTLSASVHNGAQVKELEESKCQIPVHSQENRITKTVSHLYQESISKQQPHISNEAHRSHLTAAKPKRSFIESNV

Target | probe-labelled cysteine peptide fold change (10 µM) | probe-labelled cysteine peptide fold change (50 µM)
TBCE_Q15813_152_GGVAEACPNIR (UniProt Q15813) | -0.0301 | 0.0661
SYNGR2_O43760_59_QMYCVFNR (UniProt O43760) | -0.0267 | -0.0129
TBCD_Q9BTW9_406_ALADDVVGSVLDCFSFQETDK (UniProt Q9BTW9) | 0.403 | 0.00514
TATDN1_Q6P1N9_113_VVAIGECGLDFDRLQFCPK (UniProt Q6P1N9) | -0.217 | -0.0464
TAX1BP1_Q86VP1_328_LQLCLAEK (UniProt Q86VP1) | -0.0227 | -0.0783
TBL2_Q9Y4P3_335_TGRFEEAAGAAPCR (UniProt Q9Y4P3) | -0.0894 | -0.161
TBC1D8B_Q0IIM8_840_HHDPSLPYLEQYQIDCQQFR (UniProt Q0IIM8) | 0.123 | 0.218
TATDN1_Q6P1N9_81_CGEFEK (UniProt Q6P1N9) | -0.107 | -0.107
SYVN1_Q86TM6_329_QQTCPTCR (UniProt Q86TM6) | -0.0271 | -0.00508
TARS2_Q9BW92_322_IGKEQELFFFHELSPGSCFFLPR (UniProt Q9BW92) | -0.452 | -0.018
SYNE3_Q6ZMZ3_51_ICQLEPEGR (UniProt Q6ZMZ3) | -0.131 | -0.073
TADA3_O75528_255_KSEAQHEQPEDGCPFGALTQR (UniProt O75528) | -0.0288 | -0.117
TACO1_Q9BSH4_256_KLDSLGLCSVSCALEFIPNSK (UniProt Q9BSH4) | -0.0788 | -0.13
TCEAL4_Q96EI5_34_MENEEQPQDERKPEVTCTLEDK (UniProt Q96EI5) | -0.333 | -0.301
TAPBPL_Q9BX59_283_DASLTLPGLTIQDEGTYICQITTSLYR (UniProt Q9BX59) | 0.341 | 0.391
TAF6L_Q9Y6J9_122_GCAETAVR (UniProt Q9Y6J9) | -0.0238 | 0.0809
TANK_Q92844_183_LNIPDTATETQCSVPIQCTDK (UniProt Q92844) | 0.00112 | -0.307
TBCK_Q8TEA7_871_ICILDGGINK (UniProt Q8TEA7) | 0.0276 | 0.0693
TACC1_O75410_219_AGNSCPELVPSR (UniProt O75410) | -0.0492 | -0.0392
TATDN3_Q17R31_66_YNGFVLPCLGVHPVQGLPPEDQR (UniProt Q17R31) | -0.149 | -0.0921
TAGLN2_P37802_124_NMACVQR (UniProt P37802) | -0.156 | 0.0569
TAX1BP1_Q86VP1_350_EDTCFLK (UniProt Q86VP1) | 0.0662 | -0.034

Exported in CSV form: entries from further up.
Target,probe-labelled cysteine peptide fold change (10 µM),probe-labelled cysteine peptide fold change (50 µM)
TBCK_Q8TEA7_871_ICILDGGINK (UniProt Q8TEA7),0.0276,0.0693
TACC1_O75410_219_AGNSCPELVPSR (UniProt O75410),-0.0492,-0.0392

Following part:

Target | probe-labelled cysteine peptide fold change (10 µM) | probe-labelled cysteine peptide fold change (50 µM)
TARBP1_Q13395_1481_LIVVASLIDKPTNLGGLCR (UniProt Q13395) | -0.0926 | -0.0834
TCEANC2_Q96MN5_163_ETFHLCSR (UniProt Q96MN5) | 0.276 | 0.283
TAF1C_Q15572_162_LLQDLGGHQPWGCPWAYLSNR (UniProt Q15572) | 0.124 | 0.0532
TATDN1_Q6P1N9_168_CVGGVVHSFDGTK (UniProt Q6P1N9) | -0.0418 | -0.00576
TBCD_Q9BTW9_420_AWHGGCLALAELGR (UniProt Q9BTW9) | -0.00625 | 0.148
TAB1_Q15750_235_QVGIICGQESTR (UniProt Q15750) | 0.0559 | 0.136
TAF5_Q15542_661_LWDVLNGNCVR (UniProt Q15542) | -0.246 | 0.0571
SYMPK_Q92797_848_GMGMNSPELLLLVENCPK (UniProt Q92797) | 0.175 | -0.0231
TARS_P26639_343_IGRDQELYFFHELSPGSCFFLPK (UniProt P26639) | -0.112 | 0.0666
TAX1BP1_Q86VP1_196_ERCDQLQAEQK (UniProt Q86VP1) | -0.0985 | -0.128
SYK_P43405_597_MGCPAGCPR (UniProt P43405) | -0.0238 | -0.0779
TARS2_Q9BW92_322_EQELFFFHELSPGSCFFLPR (UniProt Q9BW92) | 0.347 | 0.22
TAP2_Q03519_353_SFGAEEHEVCR (UniProt Q03519) | 0.0104 | -0.114
TBCK_Q8TEA7_330_SIEEVYYLWCLAGGDLEK (UniProt Q8TEA7) | 0.173 | -0.102
TBCD_Q9BTW9_899_SQPELIEAHTCER (UniProt Q9BTW9) | 0.15 | 0.152
TCEA2_Q15560_163_EMLTAALQTDHDHVAIGADCER (UniProt Q15560) | -0.154 | -0.0842
TACC1_O75410_114_TCSKPSENEVPQQAIDSHSVK (UniProt O75410) | -0.236 | -0.405
SZT2_Q5T011_2893_EAPTSCESLDVSPPGAR (UniProt Q5T011) | 0.119 | -0.0522
TBC1D1_Q86TI0_604_RANTLSHFPIECQEPPQPAR (UniProt Q86TI0) | 0.0159 | -0.042
TAX1BP1_Q86VP1_196_CDQLQAEQK (UniProt Q86VP1) | 0.0706 | -0.0507
TBC1D23_Q9NUY8_399_QSIESGSIAGGEHLCFMGSGR (UniProt Q9NUY8) | 0.077 | 0.00346
TAF2_Q6P1X5_34_LTHQVVCINNINFQR (UniProt Q6P1X5) | -0.151 | 0.18

Target | probe-labelled cysteine peptide fold change (10 µM) | probe-labelled cysteine peptide fold change (50 µM)
TBL2_Q9Y4P3_95_SHSGNISCMDFSSNGK (UniProt Q9Y4P3) | -0.0871 | -0.239
TAF15_Q92804_379_NSCNQCNEPRPEDSR (UniProt Q92804) | -0.121 | -0.0853
TBCB_Q99426_216_YFECQAK (UniProt Q99426) | 0.0354 | 0.0326
SZT2_Q5T011_2019_APLPSDDYAADESCAPR (UniProt Q5T011) | 0.197 | -0.14
TBL3_Q12788_728_HCHEAQAVLGVLLRR (UniProt Q12788) | -0.286 | -0.143
TAF5_Q15542_715_GHTDTVCSLR (UniProt Q15542) | 0.0397 | 0.0903
TBCC_Q15814_284_AIVEDCSGIQFAPYTWSYPEIDK (UniProt Q15814) | 0.374 | 0.173
TBC1D1_Q86TI0_178_KFEVLFCGR (UniProt Q86TI0) | -0.0471 | -0.081
TBCD_Q9BTW9_457_RGACSVGTNVR (UniProt Q9BTW9) | -0.032 | 0.172
TBCA_O75347_67_MMIPDCQR (UniProt O75347) | -0.191 | -0.228
TBL1XR1_Q9BZK7_367_WDPTGNLLASCSDDMTLK (UniProt Q9BZK7) | 0.16 | 0.072
TBCB_Q99426_83_LDQEDALLGSYPVDDGCR (UniProt Q99426) | 0.0971 | 0.0789
TBL3_Q12788_41_AQLDQTGQHLFCVCGTR (UniProt Q12788) | 0.0881 | 0.0709
TARSL2_A2RTX5_637_YHQCATIQLDFQLPIR (UniProt A2RTX5) | 0.03 | 0.0695
TBCK_Q8TEA7_54_LCQYVDISR (UniProt Q8TEA7) | 0.0282 | 0.131
TAP2_Q03519_540_PISQYEHCYLHSQVVSVGQEPVLFSGSVR (UniProt Q03519) | 0.168 | 0.0109
TARS_P26639_413_ELFALKPMNCPGHCLMFDHRPR (UniProt P26639) | -0.0216 | -0.0677
TAPBPL_Q9BX59_122_EVTCEISR (UniProt Q9BX59) | 0.00569 | 0.0559
TBC1D9B_Q66K14_162_LVNYYSCSYWK (UniProt Q66K14) | 0.119 | 0.0901
TBC1D22B_Q9NU19_206_CSWPGVPR (UniProt Q9NU19) | 0.0348 | 0.122
TANC1_Q9C0D5_1003_KGQCALVHSALR (UniProt Q9C0D5) | -0.00971 | 0.0268
TAF1B_Q53T94_326_YLMEVNLPDEMHSLTCHVVK (UniProt Q53T94) | 0.0849 | -0.0796

Record cards (already shown). Values in the order: probe-labelled cysteine peptide fold change (10 µM) | probe-labelled cysteine peptide fold change (50 µM)
TBCK_Q8TEA7_54_LCQYVDISR (UniProt Q8TEA7) in the list: 0.0282 | 0.131
TBCD_Q9BTW9_457_RGACSVGTNVR (UniProt Q9BTW9) in the list: -0.032 | 0.172
TBL2_Q9Y4P3_95_SHSGNISCMDFSSNGK (UniProt Q9Y4P3) in the list: -0.0871 | -0.239
TARS_P26639_413_ELFALKPMNCPGHCLMFDHRPR (UniProt P26639) in the list: -0.0216 | -0.0677

Next entries.

Target | probe-labelled cysteine peptide fold change (10 µM) | probe-labelled cysteine peptide fold change (50 µM)
TBC1D15_Q8TC07_605_IDVEDILCK (UniProt Q8TC07) | 0.391 | 0.145
TARS_P26639_137_VNNVVWDLDRPLEEDCTLELLKFEDEEAQAVYWHSSAHIMGEAMER (UniProt P26639) | -0.414 | -0.224
TCEA2_Q15560_173_LSAQIEECIFR (UniProt Q15560) | -0.154 | -0.172
TBC1D9B_Q66K14_340_EEDACHLIIPLR (UniProt Q66K14) | 0.146 | 0.252
TAF4_O00268_1066_DLIFCLENER (UniProt O00268) | 0.0807 | 0.15
TCERG1_O14776_1062_YLVLDCVPEER (UniProt O14776) | 0.0248 | 0.0542
TBC1D13_Q9NVG8_261_EHAEADTFFCFTNLMAEIR (UniProt Q9NVG8) | 0.243 | 0.000832
TANC1_Q9C0D5_985_LVCLLTK (UniProt Q9C0D5) | 0.0106 | 0.103
TBL2_Q9Y4P3_335_FEEAAGAAPCR (UniProt Q9Y4P3) | 0.107 | -0.0485
SYK_P43405_89_THASPADLCHYHSQESDGLVCLLK (UniProt P43405) | -0.0181 | -0.111
SYK_P43405_206_DNNGSYALCLLHEGK (UniProt P43405) | -0.078 | 0.0975
SYNJ2_O15056_31_GRDDCLLFEAGTVATLAPEEK (UniProt O15056) | -0.0378 | -0.193
TAF2_Q6P1X5_701_MSACFCLAK (UniProt Q6P1X5) | 0.02 | 0.182
TACC3_Q9Y6A5_206_VTPASETLEDPCR (UniProt Q9Y6A5) | 0.0528 | -0.154
SYNPO2_Q9UMS6_290_VEVILDCSDR (UniProt Q9UMS6) | -0.0945 | -0.224
SYVN1_Q86TM6_307_LPCNHIFHTSCLR (UniProt Q86TM6) | 0.185 | -0.0224
TACO1_Q9BSH4_234_FICDASSLHQVR (UniProt Q9BSH4) | 0.266 | 0.00692
TARS_P26639_137_VNNVVWDLDRPLEEDCTLELLK (UniProt P26639) | 0.135 | -0.116
TBL2_Q9Y4P3_391_FLASCGDR (UniProt Q9Y4P3) | -0.0125 | 0.0692

— the supplement of paper PMC12067093, “Discovery and optimisation of a covalent ligand for TRIM25 and its application to targeted protein ubiquitination” (Chemical Science, 2025)
